Test results as given in PMC7364817.
Results are given in words; binding and its absence hold for the method and conditions named. In cells and extracts the contact can be indirect. Here binding means that the protein was enriched with, or labelled near, the bait; the list need not be complete. Tags and fused reporters may be left off the sequences shown.

T1: FLAG-tagged SMCR8 (Smith-Magenis Syndrome Chromosome Region, Candidate 8) (UniProt Q8TEV9)
T1 sequence: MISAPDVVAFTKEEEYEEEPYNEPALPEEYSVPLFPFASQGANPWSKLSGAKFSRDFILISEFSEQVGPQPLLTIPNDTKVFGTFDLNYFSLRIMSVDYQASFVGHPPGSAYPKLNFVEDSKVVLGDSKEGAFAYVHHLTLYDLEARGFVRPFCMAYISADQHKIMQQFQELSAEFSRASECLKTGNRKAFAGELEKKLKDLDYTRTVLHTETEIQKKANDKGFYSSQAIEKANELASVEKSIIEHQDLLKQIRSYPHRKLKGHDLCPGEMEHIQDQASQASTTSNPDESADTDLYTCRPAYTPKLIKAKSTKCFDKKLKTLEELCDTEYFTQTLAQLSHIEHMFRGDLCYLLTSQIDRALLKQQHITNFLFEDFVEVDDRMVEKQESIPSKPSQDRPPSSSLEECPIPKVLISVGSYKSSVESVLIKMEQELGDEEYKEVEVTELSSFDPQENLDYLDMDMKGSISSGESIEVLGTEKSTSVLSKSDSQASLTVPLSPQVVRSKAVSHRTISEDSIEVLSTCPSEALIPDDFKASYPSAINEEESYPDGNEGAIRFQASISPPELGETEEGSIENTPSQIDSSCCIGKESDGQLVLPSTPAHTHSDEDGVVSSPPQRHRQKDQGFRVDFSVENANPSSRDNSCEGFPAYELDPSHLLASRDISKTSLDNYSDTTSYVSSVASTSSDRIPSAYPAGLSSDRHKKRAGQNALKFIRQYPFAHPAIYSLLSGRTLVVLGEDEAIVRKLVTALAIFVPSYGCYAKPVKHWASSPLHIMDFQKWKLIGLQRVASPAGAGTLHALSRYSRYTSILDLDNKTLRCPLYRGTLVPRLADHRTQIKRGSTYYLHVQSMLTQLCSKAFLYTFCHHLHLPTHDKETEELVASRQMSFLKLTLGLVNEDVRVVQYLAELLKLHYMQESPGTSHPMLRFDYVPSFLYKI


The binders below were run against T1, FLAG-tagged SMCR8 (Smith-Magenis Syndrome Chromosome Region, Candidate 8) (assay: affinity purification with mass spectrometry; FL-SMCR8, C9orf72-FL or empty vector transfected in HEK 293T; α-FLAG agarose IP from whole cell lysates with or without RNase; LC-MS/MS; hits with three or more spectra and not detected in vector only control).

binding	Binder
binds	nucleoporin 155 (protein, UniProt O75694 1-1391) MPSSLLGAAMPASTSAAALQEALENAGRLIDRQLQEDRMYPDLSELLMVSAPNNPTVSGMSDMDYPLQGPGLLSVPNLPEISSIRRVPLPPELVEQFGHMQCNCMMGVFPPISRAWLTIDSDIFMWNYEDGGDLAYFDGLSETILAVGLVKPKAGIFQPHVRHLLVLATPVDIVILGLSYANLQTGSGVLNDSLSGGMQLLPDPLYSLPTDNTYLLTITSTDNGRIFLAGKDGCLYEVAYQAEAGWFSQRCRKINHSKSSLSFLVPSLLQFTFSEDDPILQIAIDNSRNILYTRSEKGVIQVYDLGQDGQGMSRVASVSQNAIVSAAGNIARTIDRSVFKPIVQIAVIENSESLDCQLLAVTHAGVRLYFSTCPFRQPLARPNTLTLVHVRLPPGFSASSTVEKPSKVHRALYSKGILLMAASENEDNDILWCVNHDTFPFQKPMMETQMTAGVDGHSWALSAIDELKVDKIITPLNKDHIPITDSPVVVQQHMLPPKKFVLLSAQGSLMFHKLRPVDQLRHLLVSNVGGDGEEIERFFKLHQEDQACATCLILACSTAACDREVSAWATRAFFRYGGEAQMRFPTTLPPPSNVGPILGSPVYSSSPVPSGSPYPNPSFLGTPSHGIQPPAMSTPVCALGNPATQATNMSCVTGPEIVYSGKHNGICIYFSRIMGNIWDASLVVERIFKSGNREITAIESSVPCQLLESVLQELKGLQEFLDRNSQFAGGPLGNPNTTAKVQQRLIGFMRPENGNPQQMQQELQRKFHEAQLSEKISLQAIQQLVRKSYQALALWKLLCEHQFTIIVAELQKELQEQLKITTFKDLVIRDKELTGALIASLINCYIRDNAAVDGISLHLQDICPLLYSTDDAICSKANELLQRSRQVQNKTEKERMLRESLKEYQKISNQVDLSNVCAQYRQVRFYEGVVELSLTAAEKKDPQGLGLHFYKHGEPEEDIVGLQAFQERLNSYKCITDTLQELVNQSKAAPQSPSVPKKPGPPVLSSDPNMLSNEEAGHHFEQMLKLSQRSKDELFSIALYNWLIQVDLADKLLQVASPFLEPHLVRMAKVDQNRVRYMDLLWRYYEKNRSFSNAARVLSRLADMHSTEISLQQRLEYIARAILSAKSSTAISSIAADGEFLHELEEKMEVARIQLQIQETLQRQYSHHSSVQDAVSQLDSELMDITKLYGEFADPFKLAECKLAIIHCAGYSDPILVQTLWQDIIEKELSDSVTLSSSDRMHALSLKIVLLGKIYAGTPRFFPLDFIVQFLEQQVCTLNWDVGFVIQTMNEIGVPLPRLLEVYDQLFKSRDPFWNRMKKPLHLLDCIHVLLIRYVENPSQVLNCERRRFTNLCLDAVCGYLVELQSMSSSVAVQAITGNFKSLQAKLERLH
binds	ribosome binding protein 1 (protein, UniProt Q9P2E9 1-1410) MDIYDTQTLGVVVFGGFMVVSAIGIFLVSTFSMKETSYEEALANQRKEMAKTHHQKVEKKKKEKTVEKKGKTKKKEEKPNGKIPDHDPAPNVTVLLREPVRAPAVAVAPTPVQPPIIVAPVATVPAMPQEKLASSPKDKKKKEKKVAKVEPAVSSVVNSIQVLTSKAAILETAPKEVPMVVVPPVGAKGNTPATGTTQGKKAEGTQNQSKKAEGAPNQGRKAEGTPNQGKKTEGTPNQGKKAEGTPNQGKKAEGTPNQGKKAEGAQNQGKKVDTTPNQGKKVEGAPTQGRKAEGAQNQAKKVEGAQNQGKKAEGAQNQGKKGEGAQNQGKKAEGAQNQGKKAEGAQNQGKKAEGAQNQGKKAEGAQNQGKKAEGAQNQGKKAEGAQNQGKKVEGAQNQGKKAEGAQNQGKKAEGAQNQGKKAEGAQNQGKKAEGAQNQGKKAEGAQNQGKKAEGAQNQGKKAEGAQNQGKKVEGAQNQGKKAEGAQNQGKKAEGAQNQGKKAEGAQNQGQKGEGAQNQGKKTEGAQGKKAERSPNQGKKGEGAPIQGKKADSVANQGTKVEGITNQGKKAEGSPSEGKKAEGSPNQGKKADAAANQGKKTESASVQGRNTDVAQSPEAPKQEAPAKKKSGSKKKGEPGPPDADGPLYLPYKTLVSTVGSMVFNEGEAQRLIEILSEKAGIIQDTWHKATQKGDPVAILKRQLEEKEKLLATEQEDAAVAKSKLRELNKEMAAEKAKAAAGEAKVKKQLVAREQEITAVQARMQASYREHVKEVQQLQGKIRTLQEQLENGPNTQLARLQQENSILRDALNQATSQVESKQNAELAKLRQELSKVSKELVEKSEAVRQDEQQRKALEAKAAAFEKQVLQLQASHRESEEALQKRLDEVSRELCHTQSSHASLRADAEKAQEQQQQMAELHSKLQSSEAEVRSKCEELSGLHGQLQEARAENSQLTERIRSIEALLEAGQARDAQDVQASQAEADQQQTRLKELESQVSGLEKEAIELREAVEQQKVKNNDLREKNWKAMEALATAEQACKEKLLSLTQAKEESEKQLCLIEAQTMEALLALLPELSVLAQQNYTEWLQDLKEKGPTLLKHPPAPAEPSSDLASKLREAEETQSTLQAECDQYRSILAETEGMLRDLQKSVEEEEQVWRAKVGAAEEELQKSRVTVKHLEEIVEKLKGELESSDQVREHTSHLEAELEKHMAAASAECQNYAKEVAGLRQLLLESQSQLDAAKSEAQKQSDELALVRQQLSEMKSHVEDGDIAGAPASSPEAPPAEQDPVQLKTQLEWTEAILEDEQTQRQKLTAEFEEAQTSACRLQEELEKLRTAGPLESSETEEASQLKERLEKEKKLTSDLGRAATRLQELLKTTQEQLAREKDTVKKLQEQLEKAEDGSSSKEGTSV

The next lines start with the binder.

Binder	binding
nucleoporin 133 (protein, UniProt Q8WUM0 1-1156) MFPAAPSPRTPGTGSRRGPLAGLGPGSTPRTASRKGLPLGSAVSSPVLFSPVGRRSSLSSRGTPTRMFPHHSITESVNYDVKTFGSSLPVKVMEALTLAEVDDQLTINIDEGGWACLVCKEKLIIWKIALSPITKLSVCKELQLPPSDFHWSADLVALSYSSPSGEAHSTQAVAVMVATREGSIRYWPSLAGEDTYTEAFVDSGGDKTYSFLTAVQGGSFILSSSGSQLIRLIPESSGKIHQHILPQGQGMLSGIGRKVSSLFGILSPSSDLTLSSVLWDRERSSFYSLTSSNISKWELDDSSEKHAYSWDINRALKENITDAIWGSESNYEAIKEGVNIRYLDLKQNCDGLVILAAAWHSADNPCLIYYSLITIEDNGCQMSDAVTVEVTQYNPPFQSEDLILCQLTVPNFSNQTAYLYNESAVYVCSTGTGKFSLPQEKIVFNAQGDSVLGAGACGGVPIIFSRNSGLVSITSRENVSILAEDLEGSLASSVAGPNSESMIFETTTKNETIAQEDKIKLLKAAFLQYCRKDLGHAQMVVDELFSSHSDLDSDSELDRAVTQISVDLMDDYPASDPRWAESVPEEAPGFSNTSLIILHQLEDKMKAHSFLMDFIHQVGLFGRLGSFPVRGTPMATRLLLCEHAEKLSAAIVLKNHHSRLSDLVNTAILIALNKREYEIPSNLTPADVFFREVSQVDTICECLLEHEEQVLRDAPMDSIEWAEVVINVNNILKDMLQAASHYRQNRNSLYRREESLEKEPEYVPWTATSGPGGIRTVIIRQHEIVLKVAYPQADSNLRNIVTEQLVALIDCFLDGYVSQLKSVDKSSNRERYDNLEMEYLQKRSDLLSPLLSLGQYLWAASLAEKYCDFDILVQMCEQTDNQSRLQRYMTQFADQNFSDFLFRWYLEKGKRGKLLSQPISQHGQLANFLQAHEHLSWLHEINSQELEKAHATLLGLANMETRYFAKKKTLLGLSKLAALASDFSEDMLQEKIEEMAEQERFLLHQETLPEQLLAEKQLNLSAMPVLTAPQLIGLYICEENRRANEYDFKKALDLLEYIDEEEDININDLKLEILCKALQRDNWSSSDGKDDPIEVSKDSIFVKILQKLLKDGIQLSEYLPEVKDLLQADQLGSLKSNPYFEFVLKANYEYYVQGQI	binds
nucleoporin 93 (protein, UniProt Q8N1F7 1-819) MDTEGFGELLQQAEQLAAETEGISELPHVERNLQEIQQAGERLRSRTLTRTSQETADVKASVLLGSRGLDISHISQRLESLSAATTFEPLEPVKDTDIQGFLKNEKDNALLSAIEESRKRTFGMAEEYHRESMLVEWEQVKQRILHTLLASGEDALDFTQESEPSYISDVGPPGRSSLDNIEMAYARQIYIYNEKIVNGHLQPNLVDLCASVAELDDKSISDMWTMVKQMTDVLLTPATDALKNRSSVEVRMEFVRQALAYLEQSYKNYTLVTVFGNLHQAQLGGVPGTYQLVRSFLNIKLPAPLPGLQDGEVEGHPVWALIYYCMRCGDLLAASQVVNRAQHQLGEFKTWFQEYMNSKDRRLSPATENKLRLHYRRALRNNTDPYKRAVYCIIGRCDVTDNQSEVADKTEDYLWLKLNQVCFDDDGTSSPQDRLTLSQFQKQLLEDYGESHFTVNQQPFLYFQVLFLTAQFEAAVAFLFRMERLRCHAVHVALVLFELKLLLKSSGQSAQLLSHEPGDPPCLRRLNFVRLLMLYTRKFESTDPREALQYFYFLRDEKDSQGENMFLRCVSELVIESREFDMILGKLENDGSRKPGVIDKFTSDTKPIINKVASVAENKGLFEEAAKLYDLAKNADKVLELMNKLLSPVVPQISAPQSNKERLKNMALSIAERYRAQGISANKFVDSTFYLLLDLITFFDEYHSGHIDRAFDIIERLKLVPLNQESVEERVAAFRNFSDEIRHNLSEVLLATMNILFTQFKRLKGTSPSSSSRPQRVIEDRDSQLRSQARTLITFAGMIPYRTSGDTNARLVQMEVLMN	binds
dolichyl-diphosphooligosaccharide--protein glycosyltransferase 48 kD subunit (protein, UniProt P39656 43-456) SGPRTLVLLDNLNVRETHSLFFRSLKDRGFELTFKTADDPSLSLIKYGEFLYDNLIIFSPSVEDFGGNINVETISAFIDGGGSVLVAASSDIGDPLRELGSECGIEFDEEKTAVIDHHNYDISDLGQHTLIVADTENLLKAPTIVGKSSLNPILFRGVGMVADPDNPLVLDILTGSSTSYSFFPDKPITQYPHAVGKNTLLIAGLQARNNARVIFSGSLDFFSDSFFNSAVQKAAPGSQRYSQTGNYELAVALSRWVFKEEGVLRVGPVSHHRVGETAPPNAYTVTDLVEYSIVIQQLSNGKWVPFDGDDIQLEFVRIDPFVRTFLKKKGGKYSVQFKLPDVYGVFQFKVDYNRLGYTHLYSSTQVSVRPLQHTQYERFIPSAYPYYASAFSMMLGLFIFSIVFLHMKEKEKSD	binds
